Laboratory results reported in patent US20240043533A1.
These are yes or no findings as the source states them, for the method shown. Some results given as binding are weak or reduced against the parent protein; the word gives no strength.

Sequences of proteins named here, by UniProt entry; tags and fusion partners are left off. A change or cut given only in a name is not applied to a line headed by its entry.
UniProt P02751: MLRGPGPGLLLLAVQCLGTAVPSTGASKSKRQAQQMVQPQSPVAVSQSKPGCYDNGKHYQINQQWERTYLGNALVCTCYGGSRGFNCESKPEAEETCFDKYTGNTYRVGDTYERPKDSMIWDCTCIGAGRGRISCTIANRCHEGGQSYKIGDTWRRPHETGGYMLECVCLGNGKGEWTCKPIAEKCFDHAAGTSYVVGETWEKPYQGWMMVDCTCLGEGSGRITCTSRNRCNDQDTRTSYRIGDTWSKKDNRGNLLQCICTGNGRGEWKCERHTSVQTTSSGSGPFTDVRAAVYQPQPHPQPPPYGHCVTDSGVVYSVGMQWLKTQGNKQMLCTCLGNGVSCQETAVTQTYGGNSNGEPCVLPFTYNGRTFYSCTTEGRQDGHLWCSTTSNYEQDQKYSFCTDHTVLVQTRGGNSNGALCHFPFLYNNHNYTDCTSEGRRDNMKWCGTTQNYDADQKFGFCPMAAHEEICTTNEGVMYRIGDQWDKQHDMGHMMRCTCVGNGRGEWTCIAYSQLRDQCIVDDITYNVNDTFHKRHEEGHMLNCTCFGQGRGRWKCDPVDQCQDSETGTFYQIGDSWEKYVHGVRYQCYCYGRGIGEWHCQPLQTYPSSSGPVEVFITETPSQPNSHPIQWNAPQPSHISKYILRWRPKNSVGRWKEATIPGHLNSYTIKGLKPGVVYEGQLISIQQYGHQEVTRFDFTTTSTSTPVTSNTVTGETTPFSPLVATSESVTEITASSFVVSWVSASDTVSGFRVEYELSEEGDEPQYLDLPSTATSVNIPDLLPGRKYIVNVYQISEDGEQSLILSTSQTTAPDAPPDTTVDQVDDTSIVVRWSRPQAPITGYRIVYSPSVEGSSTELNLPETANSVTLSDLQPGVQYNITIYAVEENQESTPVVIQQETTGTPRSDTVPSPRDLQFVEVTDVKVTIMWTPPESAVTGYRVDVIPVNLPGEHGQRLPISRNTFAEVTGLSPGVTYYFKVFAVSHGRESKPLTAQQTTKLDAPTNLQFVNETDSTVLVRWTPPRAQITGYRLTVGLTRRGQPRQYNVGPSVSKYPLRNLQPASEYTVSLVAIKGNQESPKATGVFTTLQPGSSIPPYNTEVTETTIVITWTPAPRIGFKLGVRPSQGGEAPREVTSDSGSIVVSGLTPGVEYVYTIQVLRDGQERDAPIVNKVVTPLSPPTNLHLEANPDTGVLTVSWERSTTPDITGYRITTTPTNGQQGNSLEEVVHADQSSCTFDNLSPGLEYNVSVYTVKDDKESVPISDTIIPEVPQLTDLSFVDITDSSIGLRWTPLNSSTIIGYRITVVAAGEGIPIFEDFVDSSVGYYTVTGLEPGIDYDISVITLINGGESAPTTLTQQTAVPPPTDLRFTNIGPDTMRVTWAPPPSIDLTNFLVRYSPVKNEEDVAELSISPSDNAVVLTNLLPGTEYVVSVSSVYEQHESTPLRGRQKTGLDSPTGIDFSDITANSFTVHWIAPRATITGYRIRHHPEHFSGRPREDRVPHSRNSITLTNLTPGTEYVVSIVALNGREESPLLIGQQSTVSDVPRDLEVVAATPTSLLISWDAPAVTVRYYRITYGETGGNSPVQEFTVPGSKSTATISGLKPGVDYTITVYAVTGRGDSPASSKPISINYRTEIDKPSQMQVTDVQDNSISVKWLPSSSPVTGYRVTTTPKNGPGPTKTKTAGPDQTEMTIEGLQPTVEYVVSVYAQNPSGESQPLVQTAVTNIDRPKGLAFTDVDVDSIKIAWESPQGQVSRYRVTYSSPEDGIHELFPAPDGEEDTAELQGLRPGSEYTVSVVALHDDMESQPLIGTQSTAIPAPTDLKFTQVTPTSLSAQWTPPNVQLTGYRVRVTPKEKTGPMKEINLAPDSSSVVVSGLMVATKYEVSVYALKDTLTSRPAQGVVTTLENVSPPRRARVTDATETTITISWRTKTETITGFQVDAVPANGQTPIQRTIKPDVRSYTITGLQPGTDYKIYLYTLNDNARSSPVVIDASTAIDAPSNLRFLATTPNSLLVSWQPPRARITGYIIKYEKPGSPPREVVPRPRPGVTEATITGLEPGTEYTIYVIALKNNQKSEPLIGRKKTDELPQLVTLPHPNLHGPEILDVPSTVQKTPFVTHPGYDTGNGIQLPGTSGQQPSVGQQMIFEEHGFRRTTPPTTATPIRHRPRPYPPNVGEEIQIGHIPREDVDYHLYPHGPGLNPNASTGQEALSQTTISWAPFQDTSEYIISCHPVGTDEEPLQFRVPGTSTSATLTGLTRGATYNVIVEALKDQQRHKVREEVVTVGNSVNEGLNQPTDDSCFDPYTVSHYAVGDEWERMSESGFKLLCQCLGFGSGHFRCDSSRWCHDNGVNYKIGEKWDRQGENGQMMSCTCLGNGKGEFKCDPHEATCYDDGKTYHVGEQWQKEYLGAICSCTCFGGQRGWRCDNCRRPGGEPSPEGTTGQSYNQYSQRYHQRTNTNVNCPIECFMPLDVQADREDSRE
UniProt Q8NHJ6: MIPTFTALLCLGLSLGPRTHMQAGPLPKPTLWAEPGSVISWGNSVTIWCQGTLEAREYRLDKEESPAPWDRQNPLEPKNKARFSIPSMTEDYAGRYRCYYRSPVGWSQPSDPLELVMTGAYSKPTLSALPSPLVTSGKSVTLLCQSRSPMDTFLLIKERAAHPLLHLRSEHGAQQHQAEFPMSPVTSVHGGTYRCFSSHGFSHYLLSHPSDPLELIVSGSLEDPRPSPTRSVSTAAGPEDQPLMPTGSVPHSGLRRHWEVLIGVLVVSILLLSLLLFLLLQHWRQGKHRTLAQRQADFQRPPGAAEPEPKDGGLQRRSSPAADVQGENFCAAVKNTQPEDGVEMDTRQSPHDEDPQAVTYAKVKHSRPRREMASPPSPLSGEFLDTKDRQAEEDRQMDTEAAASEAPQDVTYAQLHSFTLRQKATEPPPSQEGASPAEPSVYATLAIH

Biological target: fibronectin endogenously produced by human cells (LX-2 hepatic stellate cells, Detroit 551 fibroblasts) (human) (UniProt P02751)
Experiment: binding of ILT3ECD-Fc to LX-2 cells, wild type against fibronectin knock-out

ILT3ECD-Fc (human ILT3 extracellular domain fused to an immunoglobulin Fc region) (from UniProt Q8NHJ6 22-259) (Fc fusion)
binding: binds
